In paper PMC5288343:
Results are given in words; binding and its absence hold for the method and conditions named. In cells and extracts the contact can be indirect. A result given as binding can be weak or reduced; the word gives no strength.

Target: ETAE_p044 (chloramphenicol O-acetyltransferase) (Edwardsiella tarda)
Test: co-IP; mouse antiserum against ETAE_p037 or ETAE_p044 incubated with a mixture of recombinant ETAE_p037 or ETAE_p044 and E. tarda outer membrane proteins, 12 h at 4°C; captured on nProtein A Sepharose 4 Fast Flow, washed with pH 7.0 Tris-HCl, eluted with pH 2.4 glycine-HCl; bands identified by MALDI/TOF-TOF, OmpS2 (OmpF2) and OmpA also by Western blot; only the target purified

B1: SucA (enzyme, UniProt A0AC61TJZ9 1-935)
chain: MQNGTMKAWLDSSYLAGANQSYIEQLYEDYLTDPDSVEHSWKILFQQLPANGLPPDQFHSQTRDYFRRLAKDPARFGQSFNDPQTDAKQVKVLQLINAFRFRGHQQANLDPLGLWKQEPVPDLDPAFHNLSAEDFDETFNVGSFAVGSETMRLADIYRALQQTYCGTIGAEYMHLTNTDEKRWLQQRLESVMGQPSFNAEEKRRFLRELTAAEGLERYLGAKFPGAKRFSLEGGDALIPMLKELIRHAGLHGTREVVLGMAHRGRLNVLINVLGKHADELFDEFAGKHKDHLGTGDVKYHMGFSSDMATEGGPVHLALAFNPSHLEIVSPVVMGSVRARRDRLDRTRSDIVLPITIHGDAAVTGQGIVQETLNMSQARGYEVGGTVRIVINNQIGFTTSNPLDARSSQYCTDIGKMVQAPIFHVNADDPEAVAFVTRLALDFRNTFKRDVFIDLVCYRRHGHNEADEPSATQPVMYQKIKKHPTPRKLYADRLTEQGVVSLEDATEMVNLYRDALDSGGCVVEEWRPMTMHSVTWDPYLHHEWDEAYPHAVETQRLQELARRISRVPEEVEMQARVAKIYADRAEMADGSKPFDWGGAETLAYATLVDEGIPVRLSGEDCGRGTFFHRHAVIHNQKDGSLYVPLENVHHAQGDFKVWDSVLSEAAVLAFEYGYASAEPRTLTIWEAQFGDFANGAQVVIDQFISSGEQKWGRLCGLVMLLPHGYEGQGPEHSSARLERYLQLCAQQNIQVCVPSTPAQVYHMLRRQALRGMRRPLVVMSPKSLLRHPLAISSLEELAQGSFQPAIGEIDPIDPQQVKRVVMCSGKVYYDLLEQRRKNGQENVAIVRIEQLYPFPHQAVQAVLAPYTQAHDFVWCQEEPLNQGAWYCSQHNFREVIPFGAVLRYAGRPASASPAVGYMSVHREQQQALVDDALHVE
binding: binds
